Results: article doi:10.1101/2022.04.11.487922
These are yes or no findings as the source states them, for the method shown. Some binding calls cover weakened binding; strength is not graded here. Each block holds one molecule with its values, some of them ahead of it.

Key:
Experiment in all cases: SEC
[1] = biological target: N-terminal hexahistidine murine p50(39-350) (murine) (UniProt P25799)
[2] = biological target: RelATAD (RelA residues 340-549) (murine) (UniProt Q04207)
[3] = biological target: T1, p50_(39-350)/RelA_(19-549) heterodimer (murine), P25799; details: remark: other sources report otherwise
T1 chain 1: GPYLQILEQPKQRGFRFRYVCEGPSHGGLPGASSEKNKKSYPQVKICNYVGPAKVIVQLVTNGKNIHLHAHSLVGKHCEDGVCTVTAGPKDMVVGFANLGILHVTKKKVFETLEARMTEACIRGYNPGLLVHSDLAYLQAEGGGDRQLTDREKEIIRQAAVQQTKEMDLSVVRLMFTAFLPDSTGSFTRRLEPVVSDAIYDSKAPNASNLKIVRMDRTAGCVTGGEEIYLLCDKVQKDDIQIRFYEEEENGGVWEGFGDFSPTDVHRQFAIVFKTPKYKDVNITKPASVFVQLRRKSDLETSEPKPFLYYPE
T1 chain 2: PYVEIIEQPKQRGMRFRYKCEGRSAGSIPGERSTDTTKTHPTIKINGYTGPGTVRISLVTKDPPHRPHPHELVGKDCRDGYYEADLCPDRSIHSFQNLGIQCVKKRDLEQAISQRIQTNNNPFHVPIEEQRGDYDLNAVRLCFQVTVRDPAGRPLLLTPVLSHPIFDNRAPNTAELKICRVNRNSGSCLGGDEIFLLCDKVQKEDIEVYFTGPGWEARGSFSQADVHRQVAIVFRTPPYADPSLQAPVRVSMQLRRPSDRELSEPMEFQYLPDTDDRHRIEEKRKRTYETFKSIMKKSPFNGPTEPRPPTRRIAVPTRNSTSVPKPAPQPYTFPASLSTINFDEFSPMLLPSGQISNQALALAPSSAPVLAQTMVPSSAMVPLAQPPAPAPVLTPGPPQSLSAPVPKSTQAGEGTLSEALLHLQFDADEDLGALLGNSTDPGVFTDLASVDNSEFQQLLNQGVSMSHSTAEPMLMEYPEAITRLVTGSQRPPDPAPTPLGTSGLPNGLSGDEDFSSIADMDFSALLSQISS

[4] = biological target: T2, p50_(39-350)/RelA_(19-321) heterodimer (murine), P25799; details: remark: other sources report otherwise
T2 chain 1: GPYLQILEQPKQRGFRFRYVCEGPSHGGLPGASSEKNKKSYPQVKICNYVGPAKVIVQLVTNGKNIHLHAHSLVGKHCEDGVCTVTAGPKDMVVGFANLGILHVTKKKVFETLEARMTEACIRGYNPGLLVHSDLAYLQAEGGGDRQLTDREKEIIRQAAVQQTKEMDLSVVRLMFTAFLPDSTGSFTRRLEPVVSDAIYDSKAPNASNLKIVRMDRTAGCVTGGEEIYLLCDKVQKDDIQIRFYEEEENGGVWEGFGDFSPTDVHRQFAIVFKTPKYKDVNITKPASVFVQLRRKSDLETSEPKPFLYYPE
T2 chain 2: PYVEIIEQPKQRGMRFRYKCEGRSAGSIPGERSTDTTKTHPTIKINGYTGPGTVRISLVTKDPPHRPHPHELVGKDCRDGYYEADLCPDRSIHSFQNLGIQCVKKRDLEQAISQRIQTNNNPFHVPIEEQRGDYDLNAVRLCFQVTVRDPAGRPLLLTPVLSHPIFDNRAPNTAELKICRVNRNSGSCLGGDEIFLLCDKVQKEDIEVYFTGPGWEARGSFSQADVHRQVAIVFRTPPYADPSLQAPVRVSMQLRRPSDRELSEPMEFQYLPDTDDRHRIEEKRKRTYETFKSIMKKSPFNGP

binding [1]: binds
Molecule: murine RelA residues 19-321 (from UniProt Q04207 19-321) (domain or fragment)

binding [1]: binds
Molecule: murine RelA residues 19-549 (from UniProt Q04207 19-549)

binding [2]: no binding (tested: 20 µM)
B1: RelATAD (RelA residues 340-549) (domain or fragment, UniProt Q04207 340-549)
chain: SVPKPAPQPYTFPASLSTINFDEFSPMLLPSGQISNQALALAPSSAPVLAQTMVPSSAMVPLAQPPAPAPVLTPGPPQSLSAPVPKSTQAGEGTLSEALLHLQFDADEDLGALLGNSTDPGVFTDLASVDNSEFQQLLNQGVSMSHSTAEPMLMEYPEAITRLVTGSQRPPDPAPTPLGTSGLPNGLSGDEDFSSIADMDFSALLSQISS

binding [3]: no binding (tested: 10 µM)
B2: p50_(39-350)/RelA_(19-549) heterodimer, P25799 39-350; Q04207 19-549 (complex)
chain 1: GPYLQILEQPKQRGFRFRYVCEGPSHGGLPGASSEKNKKSYPQVKICNYVGPAKVIVQLVTNGKNIHLHAHSLVGKHCEDGVCTVTAGPKDMVVGFANLGILHVTKKKVFETLEARMTEACIRGYNPGLLVHSDLAYLQAEGGGDRQLTDREKEIIRQAAVQQTKEMDLSVVRLMFTAFLPDSTGSFTRRLEPVVSDAIYDSKAPNASNLKIVRMDRTAGCVTGGEEIYLLCDKVQKDDIQIRFYEEEENGGVWEGFGDFSPTDVHRQFAIVFKTPKYKDVNITKPASVFVQLRRKSDLETSEPKPFLYYPE
chain 2: PYVEIIEQPKQRGMRFRYKCEGRSAGSIPGERSTDTTKTHPTIKINGYTGPGTVRISLVTKDPPHRPHPHELVGKDCRDGYYEADLCPDRSIHSFQNLGIQCVKKRDLEQAISQRIQTNNNPFHVPIEEQRGDYDLNAVRLCFQVTVRDPAGRPLLLTPVLSHPIFDNRAPNTAELKICRVNRNSGSCLGGDEIFLLCDKVQKEDIEVYFTGPGWEARGSFSQADVHRQVAIVFRTPPYADPSLQAPVRVSMQLRRPSDRELSEPMEFQYLPDTDDRHRIEEKRKRTYETFKSIMKKSPFNGPTEPRPPTRRIAVPTRNSTSVPKPAPQPYTFPASLSTINFDEFSPMLLPSGQISNQALALAPSSAPVLAQTMVPSSAMVPLAQPPAPAPVLTPGPPQSLSAPVPKSTQAGEGTLSEALLHLQFDADEDLGALLGNSTDPGVFTDLASVDNSEFQQLLNQGVSMSHSTAEPMLMEYPEAITRLVTGSQRPPDPAPTPLGTSGLPNGLSGDEDFSSIADMDFSALLSQISS

binding [4]: no binding (tested: 10 µM)
B3: p50_(39-350)/RelA_(19-321) heterodimer, P25799 39-350; Q04207 19-321 (complex)
chain 1: GPYLQILEQPKQRGFRFRYVCEGPSHGGLPGASSEKNKKSYPQVKICNYVGPAKVIVQLVTNGKNIHLHAHSLVGKHCEDGVCTVTAGPKDMVVGFANLGILHVTKKKVFETLEARMTEACIRGYNPGLLVHSDLAYLQAEGGGDRQLTDREKEIIRQAAVQQTKEMDLSVVRLMFTAFLPDSTGSFTRRLEPVVSDAIYDSKAPNASNLKIVRMDRTAGCVTGGEEIYLLCDKVQKDDIQIRFYEEEENGGVWEGFGDFSPTDVHRQFAIVFKTPKYKDVNITKPASVFVQLRRKSDLETSEPKPFLYYPE
chain 2: PYVEIIEQPKQRGMRFRYKCEGRSAGSIPGERSTDTTKTHPTIKINGYTGPGTVRISLVTKDPPHRPHPHELVGKDCRDGYYEADLCPDRSIHSFQNLGIQCVKKRDLEQAISQRIQTNNNPFHVPIEEQRGDYDLNAVRLCFQVTVRDPAGRPLLLTPVLSHPIFDNRAPNTAELKICRVNRNSGSCLGGDEIFLLCDKVQKEDIEVYFTGPGWEARGSFSQADVHRQVAIVFRTPPYADPSLQAPVRVSMQLRRPSDRELSEPMEFQYLPDTDDRHRIEEKRKRTYETFKSIMKKSPFNGP
